# Experimental data taken from article PMC7105379.
# Biological target: Drosophila TRIM32 (Drosophila melanogaster (endogenous in L3 larvae))
# Assay: co-IP; anti-TRIM32 antibody on Protein A Sepharose, 2 mg WT L3 larval lysate, 2 hr at 4°C; washed five times in 1M NaCl, 1% Triton, PBS; Western blot
row,binding,Binder
1,binds,"Aldolase (Ald), endogenous (enzyme, UniProt P07764 1-361) MTTYFNYPSKELQDELREIAQKIVAPGKGILAADESGPTMGKRLQDIGVENTEDNRRAYRQLLFSTDPKLAENISGVILFHETLYQKADDGTPFAEILKKKGIILGIKVDKGVVPLFGSEDEVTTQGLDDLAARCAQYKKDGCDFAKWRCVLKIGKNTPSYQSILENANVLARYASICQSQRIVPIVEPEVLPDGDHDLDRAQKVTETVLAAVYKALSDHHVYLEGTLLKPNMVTAGQSAKKNTPEEIALATVQALRRTVPAAVTGVTFLSGGQSEEEATVNLSAINNVPLIRPWALTFSYGRALQASVLRAWAGKKENIAAGQNELLKRAKANGDAAQGKYVAGSAGAGSGSLFVANHAY"
2,binds,"Phosphoglycerate mutase 78 (Pglym), endogenous (enzyme, UniProt Q9VAN7 1-255) MGGKYKIVMVRHGESEWNQKNQFCGWYDANLSEKGQEEALAAGKAVKDAGLEFDVAHTSVLTRAQVTLASILKASGHKEIPIQKTWRLNERHYGGLTGLNKAETAAKYGEAQVQIWRRSFDTPPPPMEPGHPYYENIVKDPRYAEGPKPEEFPQFESLKLTIERTLPYWNDVIIPQMKEGKRILIAAHGNSLRGIVKHLDNLSEDAIMALNLPTGIPFVYELDENFKPVVSMQFLGDEETVKKAIEAVAAQGKAK"

# Results are given in words; binding and its absence hold for the method and conditions named. In cells and extracts the contact can be indirect. Binding calls can cover weak binding; strength is not graded here.
